Literature values, collected in patent US12490952B2, “Combined sub-iliopsoas and subpectineal blocks—for hip surgery” (National Guard Health Affairs, priority 2020, dated 2025).
Some entries share one result that the patent states for a list of compounds. Some compounds share one range, which may span the group rather than tell each member.

Details: local anesthetic, general background statement

SMILES | duration of action (short-acting / intermediate duration) [min] | duration of action (long-acting) [h]
Cc1cccc(C)c1NC(=O)C1CCCCN1C (centres unmarked) [mepivacaine] | 90 to 180 | 
CCN(CC)CC(=O)Nc1c(C)cccc1C [lidocaine] | 90 to 180 | 
CCCCN1CCCCC1C(=O)Nc1c(C)cccc1C (centres unmarked) [bupivacaine] |  | 4 to 18
CCCCN1CCCC[C@H]1C(=O)Nc1c(C)cccc1C [levobupivacaine] |  | 4 to 18
CCCN1CCCC[C@H]1C(=O)Nc1c(C)cccc1C [ropivacaine] |  | 4 to 18
